Legend:
[1] = Ac-225 labelling concentration study (radiochemical yield by TLC); conditions: for complexation of [^225Ac]Ac: lower chelator concentrations
[2] = Speed of complexation with Ac-225 comparison study (radiochemical yield over time by TLC); conditions: ambient temperature

## O=C(O)c1cccc(CN2CCOCCOCCN(Cc3cccc(C(=O)O)n3)CCOCCOCC2)n1 [Compound H2macropa, N,N′-bis[(6-carboxy-2-pyridil)methyl]-4,13-diaza-18-crown-6]
[1]; up to a chelator concentration of 10^−6 M, ambient temperature, 2 hours
  Ac-225 radiolabelling: quantitatively

## O=C(O)CN1CCN(CC(=O)O)CCN(CC(=O)O)CCN(CC(=O)O)CC1 [DOTA, 2,2′,2″,2″′-(1,4,7,10-Tetraazacyclododecane-1,4,7,10-tetrayl)tetraacetic acid]
[1]; heated to 90° C.
  Ac-225 radiolabelling yield: quantitative radiolabelling yields
[1]; ambient temperature, 2 hours
  complexation of [^225Ac]Ac: no complexation

## CC(=O)O.CC(=O)O.CC(=O)O.CC(=O)O.CC(=O)O.NCCNCCN [DTPA, Diethylenetriamine pentaacetate]
[1]; ambient temperature, 2 hours
  complexation of [^225Ac]Ac: no complexation

## O=C(O)CN(CCN(CC(=O)O)CC(=O)O)CC(=O)O [EDTA, ethylenediaminetetraacetic acid]
[1]; ambient temperature, 2 hours
  complexation of [^225Ac]Ac: no complexation

## CCOc1c(NCCOCCOCCOCCn2cc(COc3cc(CN4CCOCCOCCN(Cc5cccc(C(=O)O)n5)CCOCCOCC4)nc(C(=O)O)c3)nn2)c(=O)c1=O [H2macropa-tzPEG3SqOEt]
[2]; 10^−7 M chelator, 5 minutes incubation
  radiochemical yield: started to drop
[2]; all concentrations (10^−5, 10^−6, 10^−7 M), 15 minutes
  radiochemical yield: quantitative yields

— patent US20250009917A1, “MACROCYCLE CONTAINING COMPOUNDS AND RADIOLABELLED COMPLEXES THEREOF, AS LIGANDS IN TARGETED RADIOTHERAPY APPLICATIONS” (THE UNIVERSITY OF MELBOURNE, priority 2021, published 2025)
